doi:10.1101/2023.12.07.570558 (bioRxiv, 2023)
These are yes or no findings as the source states them, for the method shown. In cells and extracts the contact can be indirect. These calls come from enrichment with a bait or labelling near it, and not all partners need be listed.

Protein sequences, listed by entry. Tags and fused reporters are not part of them.
UniProt Q96EB6: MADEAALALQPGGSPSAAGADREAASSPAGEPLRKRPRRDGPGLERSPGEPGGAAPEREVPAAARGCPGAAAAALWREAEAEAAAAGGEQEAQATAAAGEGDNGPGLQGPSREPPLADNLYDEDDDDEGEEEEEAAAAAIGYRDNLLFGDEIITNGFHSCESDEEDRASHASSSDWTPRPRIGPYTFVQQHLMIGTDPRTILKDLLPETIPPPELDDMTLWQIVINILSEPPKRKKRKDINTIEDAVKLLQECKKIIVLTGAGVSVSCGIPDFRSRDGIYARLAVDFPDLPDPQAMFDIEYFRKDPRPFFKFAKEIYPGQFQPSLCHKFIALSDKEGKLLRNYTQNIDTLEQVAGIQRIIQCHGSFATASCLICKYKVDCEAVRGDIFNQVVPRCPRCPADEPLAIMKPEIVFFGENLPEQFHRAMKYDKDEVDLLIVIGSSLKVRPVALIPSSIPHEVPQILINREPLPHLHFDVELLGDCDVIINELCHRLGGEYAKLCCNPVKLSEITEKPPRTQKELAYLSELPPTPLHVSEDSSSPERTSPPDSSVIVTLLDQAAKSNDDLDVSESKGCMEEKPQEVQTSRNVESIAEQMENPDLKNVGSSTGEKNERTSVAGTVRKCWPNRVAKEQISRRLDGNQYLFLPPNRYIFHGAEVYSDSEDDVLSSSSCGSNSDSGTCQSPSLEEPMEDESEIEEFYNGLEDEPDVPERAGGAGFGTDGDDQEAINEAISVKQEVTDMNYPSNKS

Target: HA-tagged SIRT1 (stably expressed in MEFs) (human) (UniProt Q96EB6)
Assay: affinity purification with mass spectrometry

binding: binds
B1: TUB like protein 3 (TULP3), endogenous in MEFs (protein, UniProt O88413 1-460)
chain: MEAARCAPGPRGDSAFDDETLRLRQLKLDNQRALLEKKQRKKRLEPLMVQPNPEARLRRLKPRGSEEHTPLVDPQMPRSDVILHGIDGPAAFLKPEAQDLESKPQVLSVGSPAPEEGTEGSADGESPEETAPKPDLQEILQKHGILSSVNYDEEPDKEEDEGGNLSSPSARSEESAAASQKAASETGASGVTAQQGDAQLGEVENLEDFAYSPAPRGVTVKCKVTRDKKGMDRGLFPTYYMHLEREENRKIFLLAGRKRKKSKTSNYLVSTDPTDLSREGESYIGKLRSNLMGTKFTVYDHGVNPVKAQGLVEKAHTRQELAAICYETNVLGFKGPRKMSVIIPGMNMNHERIPFRPRNEHESLLSKWQNKSMENLIELHNKAPVWNDDTQSYVLNFHGRVTQASVKNFQIVHGNDPDYIVMQFGRVADDVFTLDYNYPLCALQAFAIGLSSFDSKLACE
